# Results reported in the supplement of paper PMC4604168 (melanoma cell lines).
# The list shows a part of the results. Single values are uncertain, as repeats are few or missing.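 Cells were imaged in 1,536-well plates, and nuclei stained with an antibody against cleaved PARP were counted against all DNA-stained nuclei to give the apoptosis fraction. Screening doses were chosen to leave most cells alive, and resting and induced cleaved-PARP levels differ strongly between cell lines.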
# Experiments:
# Assay in all cases: cleaved PARP positive nuclei fraction relative to DMSO control; melanoma cells; higher = more apoptosis
# Conditions in all cases: library dose: low library concentration; 72 h
# 501Mel = test system: 501Mel
# A101D = test system: A101D
# A2058 = test system: A2058
# A375 = test system: A375
# C32 = test system: C32
# CBRC013 = test system: CBRC013 (line from a melanoma biopsy)
# CBRC014 = test system: CBRC014 (line from a melanoma biopsy)
# CBRC016 = test system: CBRC016 (line from a melanoma biopsy)
# CBRC017 = test system: CBRC017 (line from a melanoma biopsy)
# CBRC034 = test system: CBRC034 (line from a melanoma biopsy)
# COLO792 = test system: COLO792
# COLO800 = test system: COLO800
# COLO829 = test system: COLO829
# G361 = test system: G361
# IPC-298 = test system: IPC-298
# IST-MEL1 = test system: IST-MEL1
# LB2518-MEL = test system: LB2518-MEL
# LOXIMVI = test system: LOXIMVI
# CBRC008 = test system: CBRC008 (line from a melanoma biopsy)
Compound,cleaved PARP positive nuclei fraction (501Mel) [%],cleaved PARP positive nuclei fraction (A101D) [%],cleaved PARP positive nuclei fraction (A2058) [%],cleaved PARP positive nuclei fraction (A375) [%],cleaved PARP positive nuclei fraction (C32) [%],cleaved PARP positive nuclei fraction (CBRC013) [%],cleaved PARP positive nuclei fraction (CBRC014) [%],cleaved PARP positive nuclei fraction (CBRC016) [%],cleaved PARP positive nuclei fraction (CBRC017) [%],cleaved PARP positive nuclei fraction (CBRC034) [%],cleaved PARP positive nuclei fraction (COLO792) [%],cleaved PARP positive nuclei fraction (COLO800) [%],cleaved PARP positive nuclei fraction (COLO829) [%],cleaved PARP positive nuclei fraction (G361) [%],cleaved PARP positive nuclei fraction (IPC-298) [%],cleaved PARP positive nuclei fraction (IST-MEL1) [%],cleaved PARP positive nuclei fraction (LB2518-MEL) [%],cleaved PARP positive nuclei fraction (LOXIMVI) [%],cleaved PARP positive nuclei fraction (CBRC008) [%]
"Cn1c(Nc2ccc(C(F)(F)F)cc2)nc2cc(Oc3ccnc(-c4ncc(C(F)(F)F)[nH]4)c3)ccc21 + Cc1cc([N+](=O)[O-])ccc1NS(=O)(=O)c1cc(Cl)ccc1Cl [FH535] (first compound 0.08 µM, partner dose 1 µM)",113,238,166,595,254,127,156,1310,667,564,445,151,111,359,72.6,113,356,1790,
"OCc1c[nH]c2ccccc12 [Indole-3-carbinol] + COc1cc(N2CCC(N3CCN(C)CC3)CC2)ccc1Nc1ncc(Cl)c(Nc2ccccc2S(=O)(=O)C(C)C)n1 [NVP-TAE684] (first compound 0.8 µM, partner dose 0.08 µM)",172,34.6,127,,93.6,,97.8,117,110,,31,118,90.6,189,60.5,111,82.7,38.5,56
"OCc1c[nH]c2ccccc12 [Indole-3-carbinol] + Oc1cc(-c2nc(-c3ccccc3)[nH]c2-c2ccncc2)ccc1Cl [L779450] (first compound 0.8 µM, partner dose 0.2 µM)",77,39,22.4,,41.8,,105,177,88.9,,121,111,41.8,89.3,118,133,136,53.5,45.2
"CC1(C)NC(=O)N(c2ccc([N+](=O)[O-])c(C(F)(F)F)c2)C1=O [nilutamide] + N#Cc1c(O)c2c(-c3ccc(-c4ccccc4O)cc3)csc2[nH]c1=O [A769662] (first compound 1 µM, partner dose 2 µM)",226,81.2,109,129,47.8,95.5,102,125,71.4,74.3,83.4,75.9,130,93.5,105,101,38.3,26.1,
"C=CCNC1=C2C[C@@H](C)C[C@H](OC)[C@H](O)[C@@H](C)/C=C(\C)[C@H](OC(N)=O)[C@@H](OC)/C=C\C=C(/C)C(=O)NC(=CC1=O)C2=O [Tanespimycin] + O=C(O)C(=O)Nc1sc2c(c1C(=O)O)CCNC2 [TCS401] (first compound 0.002 µM, partner dose 1.66667 µM)",149,46.5,301,,85.7,,101,245,98.8,,79.8,33.5,90.4,87,123,124,94.4,55.7,356
"Cn1c(Nc2ccc(C(F)(F)F)cc2)nc2cc(Oc3ccnc(-c4ncc(C(F)(F)F)[nH]4)c3)ccc21 + O=c1cc(-c2cccc3c2Sc2ccccc2S3)oc(N2CCOCC2)c1 [KU55933] (first compound 0.08 µM, partner dose 1 µM)",49.8,337,37.1,277,34.7,117,110,94.6,84.9,170,344,104,66.4,166,148,33.9,283,87,
"C[C@@H]1CCN(C(=O)CC#N)C[C@@H]1N(C)c1ncnc2[nH]ccc12 + CCN(CC)CCCCNc1ncc2cc(-c3cc(OC)cc(OC)c3)c(NC(=O)NC(C)(C)C)nc2n1 [PD173074] (first compound 1 µM, partner dose 0.1 µM)",85.3,177,102,62.7,158,102,72.2,65.2,74.3,59.3,213,60.2,66.1,94.5,81.8,57.8,82.6,67.7,
